Assay results reported in the supplement of paper PMC10077471.
The full ranking holds about 1,900 compounds; the median of “excess over highest single agent (ExcessHSA) synergy score, 6x6 matrix” is about -83, and the lowest 2% start at about -370. Some of the results follow.

Each molecule was assayed on NCI-H446 (assay: excess over highest single agent (ExcessHSA) synergy score, 6x6 matrix; higher = less synergy (more negative = stronger synergy)). Details: 72 h; CellTiter-Glo viability.

| SMILES | excess over highest single agent |
| --- | --- |
| N#Cc1c(NC(=O)c2cccc3ccccc23)sc2c1CCCC2 + Cc1sc2c(c1C)C(c1ccc(Cl)cc1)=N[C@@H](CC(=O)OC(C)(C)C)c1nnc(C)n1-2 [NCGC00250412-19] | -155 |
| c1ccc2c(CN3CCNCC3)cccc2c1 + Cc1sc2c(c1C)C(c1ccc(Cl)cc1)=N[C@@H](CC(=O)OC(C)(C)C)c1nnc(C)n1-2 [NCGC00250412-19] | 3.2 |
| Cn1ccc2cc3c(cc21)CCN3C(=O)Nc1cccnc1 + Cc1sc2c(c1C)C(c1ccc(Cl)cc1)=N[C@@H](CC(=O)OC(C)(C)C)c1nnc(C)n1-2 [NCGC00250412-19] | -55.2 |
| CC(C)(C)C(=O)Oc1ccc2c(c1)nc(NC(=O)c1cccc([N+](=O)[O-])c1)n2CCCO + Cc1sc2c(c1C)C(c1ccc(Cl)cc1)=N[C@@H](CC(=O)OC(C)(C)C)c1nnc(C)n1-2 [NCGC00250412-19] | 119 |
| COC(=O)Nc1nc2cc([S+]([O-])c3ccccc3)ccc2[nH]1 (stereo not drawn) + Cc1sc2c(c1C)C(c1ccc(Cl)cc1)=N[C@@H](CC(=O)OC(C)(C)C)c1nnc(C)n1-2 [NCGC00250412-19] | -257 |
| C[C@@H]1O[C@@H](O[C@@H]2C=C3CC[C@@H]4[C@H](CC[C@]5(C)[C@@H](c6ccc(=O)oc6)CC[C@]45O)[C@@]3(C)CC2)[C@H](O)[C@H](O)[C@H]1O + Cc1sc2c(c1C)C(c1ccc(Cl)cc1)=N[C@@H](CC(=O)OC(C)(C)C)c1nnc(C)n1-2 [NCGC00250412-19] | -176 |
| Nc1ccn([C@@H]2CS[C@H](CO)O2)c(=O)n1 + Cc1sc2c(c1C)C(c1ccc(Cl)cc1)=N[C@@H](CC(=O)OC(C)(C)C)c1nnc(C)n1-2 [NCGC00250412-19] | 96.2 |
| COc1ccccc1OCC(O)COC(N)=O (stereo not drawn) + Cc1sc2c(c1C)C(c1ccc(Cl)cc1)=N[C@@H](CC(=O)OC(C)(C)C)c1nnc(C)n1-2 [NCGC00250412-19] | -128 |
| OC[C@@H](O)[C@@H](O)[C@@H](O)CO + Cc1sc2c(c1C)C(c1ccc(Cl)cc1)=N[C@@H](CC(=O)OC(C)(C)C)c1nnc(C)n1-2 [NCGC00250412-19] | -189 |
| O=C(Nc1ccccc1)Nc1ccc(-c2ccc(C(=O)[C@@H]3CCC[C@H]3C(=O)O)cc2)cc1 + Cc1sc2c(c1C)C(c1ccc(Cl)cc1)=N[C@@H](CC(=O)OC(C)(C)C)c1nnc(C)n1-2 [NCGC00250412-19] | 195 |
| CN(C)C/C=C/C(=O)Nc1cc2c(Nc3ccc(F)c(Cl)c3)ncnc2cc1O[C@H]1CCOC1 + Cc1sc2c(c1C)C(c1ccc(Cl)cc1)=N[C@@H](CC(=O)OC(C)(C)C)c1nnc(C)n1-2 [NCGC00250412-19] | -361 |
| COc1ccccc1[C@H](c1cccc2ccccc12)[C@@](C)(C#N)C(=O)N1CCC(c2cccc(C(F)(F)F)c2)CC1 + Cc1sc2c(c1C)C(c1ccc(Cl)cc1)=N[C@@H](CC(=O)OC(C)(C)C)c1nnc(C)n1-2 [NCGC00250412-19] | -352 |
| O=C(O)CO.[NH2-].[NH2-].[Pt+2] + Cc1sc2c(c1C)C(c1ccc(Cl)cc1)=N[C@@H](CC(=O)OC(C)(C)C)c1nnc(C)n1-2 [NCGC00250412-19] | -152 |
| CC(C)(C)OC(=O)CN(Cc1ccc(Cl)cc1)Cc1ccc([N+](=O)[O-])s1 + Cc1sc2c(c1C)C(c1ccc(Cl)cc1)=N[C@@H](CC(=O)OC(C)(C)C)c1nnc(C)n1-2 [NCGC00250412-19] | 27 |
| O=C(Nc1ccccc1Br)N[C@@H]1CCN(c2ccc(C(F)(F)F)cn2)C1 + Cc1sc2c(c1C)C(c1ccc(Cl)cc1)=N[C@@H](CC(=O)OC(C)(C)C)c1nnc(C)n1-2 [NCGC00250412-19] | -195 |
| O=C(NOCC(O)CO)c1cc(Br)c(F)c(F)c1Nc1ccc(I)cc1F (stereo not drawn) + Cc1sc2c(c1C)C(c1ccc(Cl)cc1)=N[C@@H](CC(=O)OC(C)(C)C)c1nnc(C)n1-2 [NCGC00250412-19] | -137 |
| NC[C@@H]1O[C@@H](O[C@H]2[C@@H](O)[C@H](O[C@@H]3[C@@H](O)[C@H](N)C[C@H](N)[C@H]3O[C@H]3O[C@H](CN)[C@@H](O)[C@H](O)[C@H]3N)O[C@@H]2CO)[C@H](N)[C@@H](O)[C@@H]1O + Cc1sc2c(c1C)C(c1ccc(Cl)cc1)=N[C@@H](CC(=O)OC(C)(C)C)c1nnc(C)n1-2 [NCGC00250412-19] | -25.8 |
| C#CCC(Cc1cnc2nc(N)nc(N)c2n1)c1ccc(C(=O)N[C@@H](CCC(=O)O)C(=O)O)cc1 (stereo partly drawn) + Cc1sc2c(c1C)C(c1ccc(Cl)cc1)=N[C@@H](CC(=O)OC(C)(C)C)c1nnc(C)n1-2 [NCGC00250412-19] | -285 |
| O=C(C[S+]([O-])Cc1ccco1)NC/C=C\COc1cc(CN2CCCCC2)ccn1 (stereo not drawn) + Cc1sc2c(c1C)C(c1ccc(Cl)cc1)=N[C@@H](CC(=O)OC(C)(C)C)c1nnc(C)n1-2 [NCGC00250412-19] | -37.8 |

| SMILES | excess over highest single agent |
| --- | --- |
| Clc1ccc2ncc(-c3cccc(NC4CNC4)n3)n2c1 + Cc1sc2c(c1C)C(c1ccc(Cl)cc1)=N[C@@H](CC(=O)OC(C)(C)C)c1nnc(C)n1-2 [NCGC00250412-19] | -64.1 |
| C=C1C(=O)OC(CCCCCCCC)C1C(=O)O (stereo not drawn) + Cc1sc2c(c1C)C(c1ccc(Cl)cc1)=N[C@@H](CC(=O)OC(C)(C)C)c1nnc(C)n1-2 [NCGC00250412-19] | -149 |
| CCN(CC)CCCC(C)Nc1nc(C)cc(Nc2ccc3nc(C)cc(N)c3c2)n1 (stereo not drawn) + Cc1sc2c(c1C)C(c1ccc(Cl)cc1)=N[C@@H](CC(=O)OC(C)(C)C)c1nnc(C)n1-2 [NCGC00250412-19] | -87.5 |
| O=C(c1ccccc1)c1ccc2n1CCC2C(=O)O (stereo not drawn) + Cc1sc2c(c1C)C(c1ccc(Cl)cc1)=N[C@@H](CC(=O)OC(C)(C)C)c1nnc(C)n1-2 [NCGC00250412-19] | -87.3 |
| COc1c(N2CCNC(C)C2)c(F)cc2c(=O)c(C(=O)O)cn(C3CC3)c12 (stereo not drawn) + Cc1sc2c(c1C)C(c1ccc(Cl)cc1)=N[C@@H](CC(=O)OC(C)(C)C)c1nnc(C)n1-2 [NCGC00250412-19] | -35.2 |
| O=C1NC(=O)/C(=C/c2ccc3c(c2)OC(F)(F)O3)S1 + Cc1sc2c(c1C)C(c1ccc(Cl)cc1)=N[C@@H](CC(=O)OC(C)(C)C)c1nnc(C)n1-2 [NCGC00250412-19] | 124 |
| CCN(CC)C(=O)c1ccc(C2=CC3(CCNCC3)Oc3cccc(O)c32)cc1 + Cc1sc2c(c1C)C(c1ccc(Cl)cc1)=N[C@@H](CC(=O)OC(C)(C)C)c1nnc(C)n1-2 [NCGC00250412-19] | 66.6 |
| COc1cc([C@@H]2c3cc4c(cc3[C@@H](O[C@@H]3O[C@@H]5CO[C@@H](c6cccs6)O[C@H]5[C@H](O)[C@H]3O)[C@H]3COC(=O)[C@H]23)OCO4)cc(OC)c1O + Cc1sc2c(c1C)C(c1ccc(Cl)cc1)=N[C@@H](CC(=O)OC(C)(C)C)c1nnc(C)n1-2 [NCGC00250412-19] | -144 |
| CCC(=O)N[C@H]1CC[C@H](C(=O)N(C)c2ccc(-c3nc4ccccc4o3)cc2)C1 + Cc1sc2c(c1C)C(c1ccc(Cl)cc1)=N[C@@H](CC(=O)OC(C)(C)C)c1nnc(C)n1-2 [NCGC00250412-19] | -57 |
| Nc1ccc(C(=O)Nc2cccc(-c3nc(N4CCOCC4)c4oc5ncccc5c4n3)c2)cn1 + Cc1sc2c(c1C)C(c1ccc(Cl)cc1)=N[C@@H](CC(=O)OC(C)(C)C)c1nnc(C)n1-2 [NCGC00250412-19] | 98.4 |
| CCN1CCC(n2cc(CNc3cc(Cl)c4ncc(C#N)c(Nc5ccc(F)c(Cl)c5)c4c3)nn2)CC1 + Cc1sc2c(c1C)C(c1ccc(Cl)cc1)=N[C@@H](CC(=O)OC(C)(C)C)c1nnc(C)n1-2 [NCGC00250412-19] | 44.4 |
| Nc1ccc(S(=O)(=O)Nc2ccccn2)cc1 + Cc1sc2c(c1C)C(c1ccc(Cl)cc1)=N[C@@H](CC(=O)OC(C)(C)C)c1nnc(C)n1-2 [NCGC00250412-19] | 279 |
| Cn1cc(-c2ccncc2)c(-c2ccc(OCc3ccc4ccccc4n3)cc2)n1 + Cc1sc2c(c1C)C(c1ccc(Cl)cc1)=N[C@@H](CC(=O)OC(C)(C)C)c1nnc(C)n1-2 [NCGC00250412-19] | -33.6 |
| O=C(O)[C@H]1O[C@@H](Oc2cc3oc(-c4ccccc4)cc(=O)c3c(O)c2O)[C@H](O)[C@@H](O)[C@@H]1O + Cc1sc2c(c1C)C(c1ccc(Cl)cc1)=N[C@@H](CC(=O)OC(C)(C)C)c1nnc(C)n1-2 [NCGC00250412-19] | -92.6 |
| Cc1[nH]c2ccccc2c1CCNCc1ccc(/C=C/C(=O)NO)cc1 + Cc1sc2c(c1C)C(c1ccc(Cl)cc1)=N[C@@H](CC(=O)OC(C)(C)C)c1nnc(C)n1-2 [NCGC00250412-19] | -210 |
| COc1ccnc(C[S+]([O-])c2nc3cc(OC(F)F)ccc3[nH]2)c1OC (stereo not drawn) + Cc1sc2c(c1C)C(c1ccc(Cl)cc1)=N[C@@H](CC(=O)OC(C)(C)C)c1nnc(C)n1-2 [NCGC00250412-19] | 192 |
| Nc1ccn([C@@H]2O[C@H](CO)[C@@H](O)[C@@H]2O)c(=O)n1 + Cc1sc2c(c1C)C(c1ccc(Cl)cc1)=N[C@@H](CC(=O)OC(C)(C)C)c1nnc(C)n1-2 [NCGC00250412-19] | -107 |
| CC(NCc1ccc2c(c1)nc(NC(=O)c1ccc(-c3cn[nH]c3)s1)n2CC(C)(C)O)C(C)(C)C (stereo not drawn) + Cc1sc2c(c1C)C(c1ccc(Cl)cc1)=N[C@@H](CC(=O)OC(C)(C)C)c1nnc(C)n1-2 [NCGC00250412-19] | -312 |
| c1cncc(CN2CCC(n3ncc4c(N5CCOCC5)nc(-c5ccc6[nH]ccc6c5)nc43)CC2)c1 + Cc1sc2c(c1C)C(c1ccc(Cl)cc1)=N[C@@H](CC(=O)OC(C)(C)C)c1nnc(C)n1-2 [NCGC00250412-19] | -140 |

3 entries from above, with bars between the fields:
SMILES | excess over highest single agent
Cn1cc(-c2ccncc2)c(-c2ccc(OCc3ccc4ccccc4n3)cc2)n1 + Cc1sc2c(c1C)C(c1ccc(Cl)cc1)=N[C@@H](CC(=O)OC(C)(C)C)c1nnc(C)n1-2 [NCGC00250412-19] | -33.6
O=C(O)[C@H]1O[C@@H](Oc2cc3oc(-c4ccccc4)cc(=O)c3c(O)c2O)[C@H](O)[C@@H](O)[C@@H]1O + Cc1sc2c(c1C)C(c1ccc(Cl)cc1)=N[C@@H](CC(=O)OC(C)(C)C)c1nnc(C)n1-2 [NCGC00250412-19] | -92.6
Cc1[nH]c2ccccc2c1CCNCc1ccc(/C=C/C(=O)NO)cc1 + Cc1sc2c(c1C)C(c1ccc(Cl)cc1)=N[C@@H](CC(=O)OC(C)(C)C)c1nnc(C)n1-2 [NCGC00250412-19] | -210
